From PubChem BioAssay AID540256 (National Center for Advancing Translational Sciences (NCATS), 2011)
The whole screen tested about 300,000 compounds, of which about 3,700 (1.2%) were called active. Inconclusive means that the source gave no clear call. Such entries were picked first, then a sample of the others. The call rests on the fitted dose curve; tested in HEK293 cells. A potency beside an inconclusive call is a rough fit, not a confirmed value.

Experiment: qHTS for Inhibitors of binding or entry into cells for Lassa Virus; further: nearly all actives have a fitted effect of over 50% in size
Conditions: Lassa virus pseudotype entry inhibition, cell reporter; series mostly up to 37.9 µM
Potency means the concentration at half of the fitted maximal effect.

| Compound | Potency |
| --- | --- |
| Cc1[nH]cnc1C(=O)N/N=C/c1ccc([N+](=O)[O-])s1 | inactive |
| CCN(CC)c1ccc(/C=N/NC(=S)NCc2ccc(OC)cc2)cc1 | active: 3.66 µM |
| CN(C)CCCN(C(=O)c1nc2ccccc2s1)c1nc2ccc(F)cc2s1 | inactive |
| O=c1c(Cl)c(N2CCN(c3ccccc3)CC2)cnn1C12CC3CC(CC(C3)C1)C2 | inconclusive: 20 µM [inhibitor, partial curve, poor fit] |
| Cc1ccc(C(=O)N2CCN(c3cccc(Cl)c3)CC2)cc1C | inactive |
| C#CCOCCOCCOCCNc1nc(N2CCOCC2)nc(N2CCN(C(=O)Cn3cc(CCCN=C(N)N)nn3)CC2)n1 | inconclusive: 6.51 µM [inhibitor, partial curve, poor fit] |
| c1ccc(-c2cc3c(ccc4nonc43)nn2)cc1 | inactive |
| CCCN(C(=O)c1c(C)oc2ncnc(N3CCOCC3)c12)c1ccc(Cl)c(Cl)c1 | inactive |
| N#Cc1ccc(C23CC4CC(CC(C4)C2)C3)[nH]c1=O | inconclusive: 16.4 µM [inhibitor, partial curve, poor fit] |
| COc1cc(-c2n[nH]c(=S)n2-c2cccc(C(F)(F)F)c2)cc(OC)c1OC | inactive |
| O=C(NCCC(=O)N1CCN(C(=O)c2ccco2)CC1)c1ccccc1Cl | inconclusive: 6.31 µM [inhibitor, single point] |
| Cc1ccc2c(CN3CCN(S(=O)(=O)c4ccc5c(c4)OCCO5)CC3)cc(=O)oc2c1C | inconclusive: 15.8 µM [inhibitor, single point] |
| CNC(=O)[C@H](C)[C@@H]1C[C@@]1(C)[C@@H](NC(=O)OCc1ccccc1)c1ccccc1 | inconclusive: 29.1 µM [inhibitor, partial curve, poor fit] |
| CCOC(=O)c1c(-c2ccccc2)oc2ccc(N(C(C)=O)S(=O)(=O)c3ccccc3)cc12 | inactive |
| CCC/C(=N\O)c1c[nH]c2ccccc12 | inconclusive: 3.98 µM [inhibitor, full curve] |
| CC1CCc2ccccc2N1CC(=O)Nc1cccc(S(=O)(=O)N2CCCC2)c1 (centres undefined) | inconclusive: 7.94 µM [inhibitor, partial curve, poor fit] |
| COc1ccccc1NC(=O)c1c(Nc2ccccc2C)sc(C(=O)Nc2cccc(Cl)c2)c1N | inconclusive: 15.8 µM [inhibitor, partial curve, poor fit] |
| COc1ccc(CCNc2nc(-c3cccc(NC(C)=O)c3)cs2)cc1OC | inconclusive: 10 µM [inhibitor, partial curve, poor fit] |
| c1ccc(Cn2c(NCc3ccncc3)nc3ccccc32)cc1 | inactive |
| CC(/C=N/NC(=O)c1cccc([N+](=O)[O-])c1)=C\c1ccccc1 | inconclusive: 29.1 µM [activator, single point] |
| O=C(NCc1ccco1)c1ccccc1-c1nc(-c2ccc(F)cc2)no1 | inactive |
| CCSc1oc(-c2cccs2)nc1S(=O)(=O)c1ccc(Br)cc1 | inconclusive: 35.5 µM [activator, single point] |

3 structures already listed, sorted by molecular weight, largest number first.

| Compound | Potency |
| --- | --- |
| O=c1c(Cl)c(N2CCN(c3ccccc3)CC2)cnn1C12CC3CC(CC(C3)C1)C2 | inconclusive: 20 µM [inhibitor, partial curve, poor fit] |
| Cc1ccc(C(=O)N2CCN(c3cccc(Cl)c3)CC2)cc1C | inactive |
| CC(/C=N/NC(=O)c1cccc([N+](=O)[O-])c1)=C\c1ccccc1 | inconclusive: 29.1 µM [activator, single point] |

Later entries.

| Compound | Potency |
| --- | --- |
| COc1ccc(S(=O)(=O)N2CCNC(=O)C2)cc1Br | inactive |
| Cc1ccc(NC(=O)c2ccc(S(=O)(=O)N3CCCCC3)cc2)cc1 | inconclusive: 9.2 µM [inhibitor, partial curve, poor fit] |
| Cc1ccc(NC(=O)c2nc(S(C)(=O)=O)ncc2N(Cc2ccco2)Cc2cccs2)cc1C | inconclusive: 15.8 µM [inhibitor, single point] |
| CC1(C)CC(=O)c2c(O)cc(O)cc2O1 | inconclusive: 7.3 µM [inhibitor, single point] |
| O=C1CC(=C2c3ccccc3-c3ccccc32)C(=O)N1CCCCN1CCN(c2ccccc2)CC1 | inactive |
| CCOC(=O)C1(CCOc2ccccc2)CCN(Cc2ccc(OC)c(COC)c2)CC1 | inconclusive: 15.8 µM [inhibitor, single point] |
| CCOC(=O)Cn1nc(Cc2ccccc2)c2ccccc2c1=O | inconclusive: 6.51 µM [activator, single point] |
| COc1ccc(S(=O)(=O)N(C)CC(=O)NCCN2CCOCC2)cc1Cl | inconclusive: 3.98 µM [inhibitor, partial curve, poor fit] |
| O=C(COC(=O)c1cccnc1Cl)Nc1cc(S(=O)(=O)N2CCCCC2)ccc1Cl | inconclusive: 35.5 µM [inhibitor, single point] |
| O=[N+]([O-])c1ccc(NN=Cc2cccc3ccccc23)nc1 | inactive |
| O=C(Nc1ccc(OC(=O)N2CCCCC2)cc1)N1CCOCC1 | inconclusive: 3.16 µM [inhibitor, partial curve, poor fit] |
| COc1ccc(N2CCN(C(=O)COCc3cc(-c4ccc5c(c4)OCO5)on3)CC2)cc1 | inactive |
| CC/C(=N/NC(=O)c1ccccc1O)c1c(C)[nH]n(-c2ccccc2)c1=O | inconclusive: 35.5 µM [inhibitor, single point] |
| CCc1ccccc1NC(=O)C(C)n1c(=O)cc(C)c2c(C)nn(-c3ccccc3)c21 (centres undefined) | inactive |
| COC(=O)c1ccc(CSc2nc3c([nH]c4ccccc43)c(=O)n2-c2cccc(Cl)c2)o1 | inconclusive: 3.98 µM [inhibitor, full curve, poor fit] |
| Cn1c(=O)c2c(nc(SCC(=O)c3cccs3)n2Cc2ccc(F)cc2)n(C)c1=O | inconclusive: 8.2 µM [inhibitor, single point] |
| CCOC(=O)C1CCCN(C(=O)Cn2ncc3c4ccccc4n(Cc4ccccc4)c3c2=O)C1 (centres undefined) | inconclusive: 7.94 µM [inhibitor, partial curve, poor fit] |
| O=C1C(Cl)=C(NCC2CCCO2)C(=O)N1C1CCCCC1 (centres undefined) | inactive |
| O=[N+]([O-])c1cncn1CCN1CCOCC1 | inactive |
| Cc1ccc(NC(=S)NNC(=O)c2ccco2)cc1 | inconclusive: 0.651 µM [activator, full curve, poor fit] |
| COc1ccc(NC(=O)NCCN2C(=O)C3C4C=CC(C4)C3C2=O)cc1 (centres undefined) | inactive |
| O=C(CN1CCN(c2ccccn2)CC1)Nc1cccc(Cl)c1Cl | active: 7.08 µM |
